PubChem BioAssay AID1053208 | Peter MacCallum Cancer Centre – 2014

Test: 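Synthetic lethal interactions between gene loss and doxorubicin in osteosarcoma cells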 (primary screen)
Cell system: mouse osteosarcoma cells, early-passage culture from an engineered mouse model of fibroblastic bone tumour
Reagent: siRNA pool against mouse genes, 40 nM
Timing: about 120 h (48 h before drug, then 72 h with drug)
Challenge: doxorubicin 100 nM for 72 h, roughly 30-40% inhibitory dose
Detection: 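Viability read as ATP luminescence after 72 h of 100 nM doxorubicin or none, duplicate wells averaged, scaled to non-targeting siRNA, then expressed as robust z-scores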
Scale: viability z-score with doxorubicin and doxorubicin viability vs non-targeting: higher = more viable cells under doxorubicin; viability z-score without drug: higher = more viable cells with knock-down alone; z-score of drug to no-drug ratio: higher = less drug sensitisation by knock-down
Hit rule: 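Called active if knock-down leaves viability unchanged without drug (z within -2 to 2) but lowers it with doxorubicin (z at or under -2)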
The whole screen tested about 17,000 reagents; shown is an unselected part. Over the whole deposit, 788 (4.7%) got an active call. 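Calls rest on z-score classes alone; an extra cut-off of viability at most 70% of control was not applied to them.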 Unmarked entries are inactive. Reagent sequences are not shown.

| combined z-score class | viability z-score with doxorubicin | viability z-score without drug | z-score of drug to no-drug ratio | doxorubicin viability vs non-targeting | gene | PubChem SID |
| --- | --- | --- | --- | --- | --- | --- |
| no change with or without drug | -0.79 | 0.84 | -1.24 | 0.87 | Tial1 | SID152302853 |
| no change with or without drug | 0.11 | 1.18 | -0.56 | 0.95 | Prtn3 | SID152281217 |
| no change with or without drug | 0.45 | -0.34 | 0.79 | 0.98 | Nsl1 | SID152284317 |
| no change with or without drug | -0.45 | -0.17 | -0.22 | 0.9 | Or2r3 | SID152333889 |
| no change with or without drug | 0.9 | -1.35 | 2.14 | 1.02 | Mpped1 | SID152314017 |
| no change with or without drug | -0.11 | 0.51 | -0.34 | 0.93 | Cabyr | SID152332962 |
| no change with or without drug | 1.69 | 1.18 | 1.01 | 1.09 | Vmn1r78 | SID152325701 |
| low cell count without drug only | -0.45 | -2.36 | 1.46 | 0.9 | Plxna1 | SID152291198 |
| high cell count without drug only | 1.35 | 2.53 | -0.22 | 1.06 | 4933408B17 | SID152282321 |
| no change with or without drug | 0.67 | 1.01 | 0.11 | 1 | Rhog | SID152341791 |
| no change with or without drug | -0.45 | 0.17 | -0.45 | 0.9 | Smyd1 | SID152290406 |
| no change with or without drug | -1.12 | -0.51 | -0.79 | 0.84 | Shank3 | SID152341551 |
| no change with or without drug | -0.9 | -1.01 | -0.11 | 0.86 | Idi1 | SID152335547 |
| high cell count without drug only | 1.24 | 2.53 | -0.34 | 1.05 | ELL2 | SID152272303 |

2 neighbouring entries already listed:
| combined z-score class | viability z-score with doxorubicin | viability z-score without drug | z-score of drug to no-drug ratio | doxorubicin viability vs non-targeting | gene | PubChem SID |
| --- | --- | --- | --- | --- | --- | --- |
| no change with or without drug | 1.69 | 1.18 | 1.01 | 1.09 | Vmn1r78 | SID152325701 |
| low cell count without drug only | -0.45 | -2.36 | 1.46 | 0.9 | Plxna1 | SID152291198 |

More results follow.
| combined z-score class | viability z-score with doxorubicin | viability z-score without drug | z-score of drug to no-drug ratio | doxorubicin viability vs non-targeting | gene | PubChem SID |
| --- | --- | --- | --- | --- | --- | --- |
| no change with or without drug | 0.11 | 0.34 | 0 | 0.95 | Rom1 | SID152316120 |
| no change with or without drug | 0 | 1.01 | -0.56 | 0.94 | Ring1 | SID152266663 |
| no change with or without drug | 1.46 | 1.18 | 0.79 | 1.07 | Acaa1a | SID152328599 |
| no change with or without drug | -0.22 | -0.34 | 0.11 | 0.92 | Ranbp10 | SID152321092 |
| no change with or without drug | -0.9 | -1.52 | 0.22 | 0.86 | Mrps18a | SID152272949 |
| no change with or without drug | -1.91 | 1.69 | -2.81 | 0.77 | Wdr13 | SID152299741 |
| no change with or without drug | -1.8 | -1.35 | -0.9 | 0.78 | Krtap3-2 | SID152310242 |
| no change with or without drug | 0 | 1.85 | -1.01 | 0.94 | Trim16 | SID152332961 |
| no change with or without drug | -1.12 | -0.17 | -1.01 | 0.84 | Vmn1r214 | SID152335969 |
| no change with or without drug | 0.22 | -0.17 | 0.45 | 0.96 | Ppp1r42 | SID152337948 |
| no change with or without drug | 0.22 | 1.18 | -0.45 | 0.96 | Prep | SID152266787 |
| no change with or without drug | -1.12 | 1.18 | -1.8 | 0.84 | Chrdl2 | SID152340283 |
| no change with or without drug | 0.22 | -0.84 | 1.01 | 0.96 | Eif2ak3 | SID152263274 |
| no change with or without drug | -1.01 | -1.01 | -0.22 | 0.85 | Adam29 | SID152335606 |
| no change with or without drug | 0.67 | -0.51 | 1.24 | 1 | Mrpl23 | SID152338135 |
| no change with or without drug | -1.8 | -1.35 | -0.9 | 0.78 | Or9m1 | SID152325478 |
| no change with or without drug | -0.79 | 0.51 | -1.01 | 0.87 | Wdr41 | SID152296657 |
| no change with or without drug | -1.12 | 0.17 | -1.12 | 0.84 | Efna5 | SID152264901 |
| low cell count with and without drug | -8.54 | -7.76 | -6.86 | 0.18 | Psmc5 | SID152299670 |
| no change with or without drug | -0.45 | -0.17 | -0.22 | 0.9 | Or5h26 | SID152266109 |
